Assay results: article PMC11096365, “Cryo-EM structures of the human Elongator complex at work” (Nature Communications, 2024)
For some of these results: Weaker means in comparison with the reference protein, sequence or condition of that experiment. For some of these results: Construct, isoform or probe ends are uncertain for at least one entry. For some of these results: At least one verdict was read from the data and is not stated in words by the source.

Assays:
Assay in all cases: MST
[1] = system: ELP1 + ELP2 + ELP3 wild type; conditions: MST: 20 mM HEPES pH 7.5, 100 mM NaCl, 5 mM DTT, 0.05% Tween 20, incubated at 4 C 30 min, measured at 25 C, Cy5-tRNA 14 or 30 nM, recombinant protein, protein details: C-terminal Twin-Strep-Tag; for binding result: label: internal Cy5 (5% Cy5-CTP)
ELP1 + ELP2 + ELP3 R364A = conditions: 2-4 fold lower affinity than WT (range for three mutants); MST: 20 mM HEPES pH 7.5, 100 mM NaCl, 5 mM DTT, 0.05% Tween 20; incubated at 4 C 30 min, measured at 25 C; Cy5-tRNA 14 or 30 nM; recombinant protein; protein details: C-terminal Twin-Strep-Tag; label: internal Cy5 (5% Cy5-CTP) for MST
[2] = system: ELP1 + ELP2 + ELP3 Δ1-85 del1-85; conditions: 2-4 fold lower affinity than WT (range for three mutants); MST: 20 mM HEPES pH 7.5, 100 mM NaCl, 5 mM DTT, 0.05% Tween 20; incubated at 4 C 30 min, measured at 25 C; Cy5-tRNA 14 or 30 nM; recombinant protein; protein details: C-terminal Twin-Strep-Tag; label: internal Cy5 (5% Cy5-CTP) for MST
ELP1 + ELP2 + ELP3 R361A = conditions: 2-4 fold lower affinity than WT (range for three mutants); MST: 20 mM HEPES pH 7.5, 100 mM NaCl, 5 mM DTT, 0.05% Tween 20; incubated at 4 C 30 min, measured at 25 C; Cy5-tRNA 14 or 30 nM; recombinant protein; protein details: C-terminal Twin-Strep-Tag; label: internal Cy5 (5% Cy5-CTP) for MST

Row | Sequence | binding result [1] | Kd ([1]; 500 uM desulpho-CoA, label: internal Cy5 (5% Cy5-CTP) for MST) [nM] | binding result (ELP1 + ELP2 + ELP3 R364A) | binding result [2] | binding result (ELP1 + ELP2 + ELP3 R361A)
1 | GCCCGGAUAGCUCAGUCGGUAGAGCAUCAGACUUUUAAUCUGAGGGUCCAGGGUUCAAGUCCCUGUUCGGGCGCCA [tRNALysUUU] | binds | – | – | – | –
2 | GGCCCCAUGGUGUAAUGGUUAGCACUCUGGACUUUGAAUCCAGCGAUCCGAGUUCAAAUCUCGGUGGGACCUCCA [tRNAGlnUUG] | – | 183 | binds more weakly | binds more weakly | binds more weakly
3 | GUCUCUGUGGCGCAAUGGACGAGCGCGCUGGACUUCUAAUCCAGAGGUUCCGGGUUCGAGUCCCGGCAGAGAUGCCA [tRNAArgUCU] | binds | – | – | – | –
4 | UCCCUGGUGGUCUAGUGGCUAGGAUUCGGCGCUUUCACCGCCGCGGCCCGGGUUCGAUUCCCGGUCAGGGAACCA [tRNAGluUUC] | binds | – | – | – | –
